Results deposited as PubChem BioAssay AID1508597 (Cure First, 2020).

Assay: 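Survival screen with siRNA in ovarian cancer cells derived from patients, with or without rucaparib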 (primary screen)
Cells: human ovarian carcinoma lines grown from tumours: OCI-P5x (papillary serous) and OCI-C5x (clear cell)
Reagent: siRNA pool against human genes, 1.25 pmol siRNA per well
Timing: 72 h or 96 h, depending on the cell culture
Treatment: rucaparib 20 µM (about IC30) or vehicle, present until read-out
Rucaparib or vehicle: Rucaparib
Cell line: OCI-P5x (serous)
Measured: 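ATP luminescence measured at 72 or 96 h according to the culture, then normalised and expressed as percent viability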
Direction: viability, normalised: higher = more viable cells remaining
Call rule: 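a well counts as a hit if its normalised viability is under 80 percent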
Meaning of the calls: active = viability under 80%; inactive = viability 80% or more
This is an unselected part of the about 2,100 reagents, in one setting of the screen. 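Calls flag viability under 80% in either arm, not effects specific to rucaparib; the reference for percent is not stated.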 Some reagents were tested in more than one well and are listed for each. No sequences are given here. The record does not give: the 100% reference.

gene | PubChem SID | technical replicate | viability, normalised (%) | activity call
STK32C | SID405527761 | 1 | 52.5 | active
STK32C | SID405527761 | 2 | 91.9 | inactive
STK32C | SID405527761 | 3 | 74 | active
PCDHB11 | SID405527120 | 1 | 50.6 | active
PCDHB11 | SID405527120 | 2 | 34.3 | active
PCDHB11 | SID405527120 | 3 | 54.3 | active
CAMK1G | SID405526416 | 1 | 76.5 | active
CAMK1G | SID405526416 | 1 | 87.8 | inactive
CAMK1G | SID405526416 | 2 | 93.1 | inactive
CAMK1G | SID405526416 | 2 | 73.6 | active
CAMK1G | SID405526416 | 3 | 74.4 | active
CAMK1G | SID405526416 | 3 | 87 | inactive
INO80B | SID405526902 | 1 | 52.2 | active
INO80B | SID405526902 | 2 | 49.1 | active
INO80B | SID405526902 | 3 | 54.5 | active
MORC3 | SID405527023 | 1 | 53.9 | active
MORC3 | SID405527023 | 2 | 57.9 | active
MORC3 | SID405527023 | 3 | 61.8 | active

4 successive entries already listed, quoted:
gene | PubChem SID | technical replicate | viability, normalised (%) | activity call
STK32C | SID405527761 | 2 | 91.9 | inactive
STK32C | SID405527761 | 3 | 74 | active
PCDHB11 | SID405527120 | 1 | 50.6 | active
PCDHB11 | SID405527120 | 2 | 34.3 | active

Further records follow.
gene | PubChem SID | technical replicate | viability, normalised (%) | activity call
PRKDC | SID405527693 | 1 | 90.5 | inactive
PRKDC | SID405527693 | 1 | 87.4 | inactive
PRKDC | SID405527693 | 2 | 90.9 | inactive
PRKDC | SID405527693 | 2 | 81.8 | inactive
PRKDC | SID405527693 | 3 | 88.2 | inactive
PRKDC | SID405527693 | 3 | 91.8 | inactive
TH | SID405526560 | 1 | 59.5 | active
TH | SID405526560 | 2 | 49.1 | active
TH | SID405526560 | 3 | 59 | active
PDE5A | SID405526693 | 1 | 51.9 | active
PDE5A | SID405526693 | 2 | 56.8 | active
PDE5A | SID405526693 | 3 | 56.5 | active
PDE6B | SID405526695 | 1 | 59.1 | active
PDE6B | SID405526695 | 2 | 75.4 | active
PDE6B | SID405526695 | 3 | 58.9 | active
NR4A2 | SID405527089 | 1 | 43.2 | active
NR4A2 | SID405527089 | 2 | 54.7 | active
NR4A2 | SID405527089 | 3 | 50.4 | active
POLR1B | SID405527172 | 1 | 41.4 | active
POLR1B | SID405527172 | 2 | 48.5 | active
POLR1B | SID405527172 | 3 | 47.9 | active
